Experiment [1] concerns the target T1, BVES-myc (Blood Vessel Epicardial Substance) (human) (UniProt Q8NE79).
T1 sequence: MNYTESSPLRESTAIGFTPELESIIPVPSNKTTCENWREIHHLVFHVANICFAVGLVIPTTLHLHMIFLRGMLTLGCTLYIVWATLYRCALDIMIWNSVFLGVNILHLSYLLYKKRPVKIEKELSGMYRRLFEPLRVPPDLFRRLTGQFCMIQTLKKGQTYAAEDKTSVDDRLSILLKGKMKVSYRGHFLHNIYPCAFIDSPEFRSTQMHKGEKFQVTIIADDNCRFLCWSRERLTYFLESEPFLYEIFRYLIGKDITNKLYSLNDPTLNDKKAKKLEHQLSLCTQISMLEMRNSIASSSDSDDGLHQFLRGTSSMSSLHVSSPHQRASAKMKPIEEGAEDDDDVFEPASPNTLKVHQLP
Briefly: co-IP; mapping with truncation or deletion constructs of ANO5 and BVES; BVES-myc as bait for the ANO5 fragments; transfected cells (cell line not stated); RIPA lysis buffer, 4 °C.

Experiment [2] deals with T1, BVES-myc (Blood Vessel Epicardial Substance) (human). The experiment can be described thus: co-IP; COS-1 cells co-expressing ANO5 and myc-tagged BVES or POPDC2; IP with anti-myc antibody and protein A/G agarose; RIPA lysis buffer (25 mM Tris-HCl pH 7.4, 150 mM NaCl, 1% Triton X-100), 4 °C.
The target of another experiment is T2, POPDC2-myc (human) (UniProt Q9HBU9).
T2 sequence: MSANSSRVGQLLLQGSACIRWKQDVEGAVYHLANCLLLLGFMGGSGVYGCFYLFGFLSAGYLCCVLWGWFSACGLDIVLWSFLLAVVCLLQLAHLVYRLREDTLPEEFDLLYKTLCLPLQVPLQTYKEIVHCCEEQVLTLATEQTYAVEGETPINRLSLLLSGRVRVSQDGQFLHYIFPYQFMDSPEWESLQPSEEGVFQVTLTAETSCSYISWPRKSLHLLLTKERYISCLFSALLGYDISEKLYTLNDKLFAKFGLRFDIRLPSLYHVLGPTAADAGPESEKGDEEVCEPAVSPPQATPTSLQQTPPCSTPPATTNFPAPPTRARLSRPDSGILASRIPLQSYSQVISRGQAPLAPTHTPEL
The description is as above.

In experiment [3] the target is T3, FLAG-hANO5-BioID2 (human) (UniProt Q75V66).
T3 sequence: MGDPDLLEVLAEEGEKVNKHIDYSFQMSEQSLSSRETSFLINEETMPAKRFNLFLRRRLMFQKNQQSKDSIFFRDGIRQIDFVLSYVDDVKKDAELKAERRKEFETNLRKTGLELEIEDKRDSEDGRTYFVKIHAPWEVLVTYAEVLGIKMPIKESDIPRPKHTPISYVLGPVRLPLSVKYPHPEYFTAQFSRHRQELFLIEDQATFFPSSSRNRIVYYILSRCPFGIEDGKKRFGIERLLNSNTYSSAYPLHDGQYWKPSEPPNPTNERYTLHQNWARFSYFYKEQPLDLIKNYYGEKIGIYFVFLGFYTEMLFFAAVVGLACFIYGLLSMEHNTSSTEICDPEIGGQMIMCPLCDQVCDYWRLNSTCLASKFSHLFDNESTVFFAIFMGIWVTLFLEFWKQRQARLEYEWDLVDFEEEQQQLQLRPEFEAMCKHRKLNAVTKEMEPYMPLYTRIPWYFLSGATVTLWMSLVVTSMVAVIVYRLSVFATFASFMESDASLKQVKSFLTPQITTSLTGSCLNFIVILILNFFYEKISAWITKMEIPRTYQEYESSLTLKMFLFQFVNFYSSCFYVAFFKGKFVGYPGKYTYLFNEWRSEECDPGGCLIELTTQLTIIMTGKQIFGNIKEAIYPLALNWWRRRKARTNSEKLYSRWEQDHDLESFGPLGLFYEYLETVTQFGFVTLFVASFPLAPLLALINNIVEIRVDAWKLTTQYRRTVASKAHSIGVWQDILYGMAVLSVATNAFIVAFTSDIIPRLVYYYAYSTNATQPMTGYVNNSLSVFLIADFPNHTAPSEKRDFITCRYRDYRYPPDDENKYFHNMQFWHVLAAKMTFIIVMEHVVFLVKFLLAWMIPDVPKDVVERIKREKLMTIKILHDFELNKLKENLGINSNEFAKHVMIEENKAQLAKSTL
Briefly: co-IP; C2C12 myoblasts stably expressing FLAG-hANO5-BioID2, transiently transfected with BVES-myc; IP with FLAG antibody; RIPA lysis buffer, 4 °C.

No constants are given. Whether binding was seen depends on the method and setting. In cells and extracts the contact can be indirect. Some entries that bind do so weakly or less than the wild type. Sequences can lack the tags named with a protein.

B1: ANO5 (Anoctamin 5), full-length (protein, UniProt Q75V66 1-913)
chain: T3 sequence
For the molecule B1, the binding result (in experiment [1]; in experiment [2]; in the experiment with POPDC2-myc (human)) was “binds” throughout.

B2: BVES-myc (Blood Vessel Epicardial Substance) (protein, UniProt Q8NE79 1-360)
chain: T1 sequence
B2: the binding entry in experiment [3] is given as “binds”.

B3: ANO5, first 121 amino acids (domain or fragment, UniProt Q75V66 1-121)
chain: MGDPDLLEVLAEEGEKVNKHIDYSFQMSEQSLSSRETSFLINEETMPAKRFNLFLRRRLMFQKNQQSKDSIFFRDGIRQIDFVLSYVDDVKKDAELKAERRKEFETNLRKTGLELEIEDKR
Take B3: the binding entry in experiment [1] is reported as “binds”.

The record behind these values is PMC8715634.
